This passage reports binding results from publication doi:10.1101/2025.10.15.682441.

Sequences of proteins named here, by UniProt entry; tags and fusion partners are left off. A change or cut given only in a name is not applied to a line headed by its entry.
UniProt Q9UHD9, whole entry: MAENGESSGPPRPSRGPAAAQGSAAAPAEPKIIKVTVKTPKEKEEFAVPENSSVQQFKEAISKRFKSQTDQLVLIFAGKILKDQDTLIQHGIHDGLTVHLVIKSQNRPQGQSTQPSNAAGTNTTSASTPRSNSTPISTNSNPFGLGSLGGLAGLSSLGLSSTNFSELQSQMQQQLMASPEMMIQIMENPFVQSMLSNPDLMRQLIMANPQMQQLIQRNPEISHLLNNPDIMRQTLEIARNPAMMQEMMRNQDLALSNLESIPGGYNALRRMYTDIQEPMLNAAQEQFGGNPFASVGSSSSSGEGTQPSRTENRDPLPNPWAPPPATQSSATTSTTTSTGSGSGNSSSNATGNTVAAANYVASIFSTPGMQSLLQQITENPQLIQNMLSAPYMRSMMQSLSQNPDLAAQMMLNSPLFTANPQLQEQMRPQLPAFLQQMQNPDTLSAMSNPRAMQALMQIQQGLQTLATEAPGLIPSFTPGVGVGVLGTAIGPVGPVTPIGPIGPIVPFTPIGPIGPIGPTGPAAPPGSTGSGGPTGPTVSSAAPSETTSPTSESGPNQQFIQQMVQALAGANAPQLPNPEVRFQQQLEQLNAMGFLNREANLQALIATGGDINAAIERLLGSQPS

The test has as its target Ubiquilin-2, wild type (UBQLN2^WT) (human (endogenous in iPSCs and iMNs)) (UniProt Q9UHD9). Description: affinity purification with mass spectrometry.

No constants are given. Whether binding was seen depends on the method and setting. In cells and extracts the contact can be indirect. These calls come from enrichment with a bait or labelling near it, and not all partners need be listed.

Regarding VKORC1 (from UniProt Q9BQB6 1-163), the binding entry was “binds”.
To VKORC1L1 (from UniProt Q8N0U8 1-176) belongs “binds”.
